From PubChem BioAssay AID1259354 (Paczesny and Yang Labs, IUPUI and University of Michigan, 2018)
Hit rate of the full screen: of about 78,000 compounds, about 1,800 (2.3%) were called active. This list was built around the results that the source calls inconclusive (neither active nor inactive); the mix of calls is not that of the screen. Cut-off read from the data, not from the text of the source: active = inhibition above about 30%; inconclusive = mostly about 10% to 28%; inactive = weaker than that.

By UniProt entry, the sequences of proteins in these tests, tags left out. Where a name states a change or a piece, a line headed by the entry shows the natural chain unless it says otherwise.
UniProt Q01638: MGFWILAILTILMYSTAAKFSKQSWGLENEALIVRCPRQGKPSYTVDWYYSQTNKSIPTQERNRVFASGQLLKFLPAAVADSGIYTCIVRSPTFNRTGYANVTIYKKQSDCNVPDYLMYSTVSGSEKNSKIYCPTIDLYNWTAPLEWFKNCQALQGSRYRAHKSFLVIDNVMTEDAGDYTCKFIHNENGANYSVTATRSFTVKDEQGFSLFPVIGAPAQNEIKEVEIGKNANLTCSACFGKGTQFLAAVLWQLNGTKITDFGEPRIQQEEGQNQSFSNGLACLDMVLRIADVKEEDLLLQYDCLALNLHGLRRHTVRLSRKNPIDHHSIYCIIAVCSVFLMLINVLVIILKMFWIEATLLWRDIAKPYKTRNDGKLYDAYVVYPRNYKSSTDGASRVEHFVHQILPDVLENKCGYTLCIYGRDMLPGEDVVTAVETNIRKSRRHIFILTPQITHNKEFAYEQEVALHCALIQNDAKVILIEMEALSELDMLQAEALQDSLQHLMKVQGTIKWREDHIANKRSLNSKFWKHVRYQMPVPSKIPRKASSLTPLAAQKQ

The molecules below were run against Interleukin-1 receptor-like 1 (Homo sapiens) (UniProt Q01638) (assay: blocks human ST2 binding to IL-33, primary screen, biochemical, AlphaLISA (AID 1259354)). Details: AlphaLISA ST2-Fc/biotin-IL-33 interaction, 1 h; at 17 µM, hits give high values.
For `Cc1ccc(S(=O)(=O)N2CCN(c3nc(-c4ccc(C)o4)cs3)CC2)cc1`, the inhibition was active: 37%. With `CCSc1nnc(NC(=O)C(F)(F)F)s1` the inhibition was “inactive”. With `O=C(Nc1ccnn1C1CCN(Cc2cc3ccccc3o2)CC1)C1CCCC1` the inhibition was inconclusive: 12%. For `NC(=O)C(=O)Nc1ccc(Cl)cc1`, the inhibition was inconclusive: 14%. `CCCN=C(NS(=O)(=O)c1ccc(F)cc1)c1ccccc1` was tested, and the inhibition was inconclusive: 13%. For `c1ccc2c(SCc3nc4ccccc4[nH]3)nncc2c1`, the inhibition was “inactive”. For `Cc1cc2cc(C(=O)NCc3noc(Cc4ccccc4)n3)ccc2o1`, the inhibition was “inactive”. `CCOC(=O)c1c(NC(=O)CSc2c[nH]c3ccccc23)sc2c1CCCC2` was tested, and the inhibition was “inactive”. In the case of `CCCC(=O)N1c2ccccc2NC2=C(C(=O)CCC2)C1c1ccccc1` (stereo not drawn), the inhibition is reported as inconclusive: 20%. `COC(=O)c1c(NC(=O)COc2ccc(F)cc2F)sc(C)c1C` was tested, and the inhibition was “inactive”. `Cc1cccc2[nH]nc(-c3cc(NCCN(C)C)nc4[nH]ccc34)c12` was tested, and the inhibition was inconclusive: 19%. `COc1ccc(CC(=O)Nc2cccc(-c3nc4ncccc4o3)c2)cc1OC` was tested, and the inhibition was inconclusive: 23%. `CCCCOC(=O)C1=C(C)Nc2ncnn2C1c1ccc(C)cc1` (stereo not drawn) was tested, and the inhibition was “inactive”. With `CCCN(CCO)Cc1cc(OC)c(OC)cc1Br` the inhibition was inconclusive: 10%. In the case of `CC(C)CCN(C)C1CCN(S(=O)(=O)c2ccc(Cl)cc2)CC1`, the inhibition is reported as “inactive”. In the case of `CCSc1ncc(-c2nccn2-c2ccc(-c3ccn[nH]3)cc2)cn1`, the inhibition is reported as inconclusive: 17%. `Cc1ccnc2c([N+](=O)[O-])cccc12` was tested, and the inhibition was inconclusive: 21%. In the case of `O=[N+]([O-])c1cc(-n2ncnc2-c2ccc(Cl)cc2)ccc1F`, the inhibition is reported as “inactive”. `O=C(CCc1nnc(-c2ccsc2)o1)N1CCCC1c1nc2ccccc2s1` (stereo not drawn) was tested, and the inhibition was “inactive”. For `CCn1nc(CC(C)C)cc1C(=O)N1C[C@H]2CC=C(C)C[C@H]2C1`, the inhibition was inconclusive: 11%. For `O=C(COc1ccc(Br)cc1)N1CCCC1`, the inhibition was “inactive”. `COc1cc([N+](=O)[O-])cc(CN2CCN(c3cc(C)ccc3C)CC2)c1O` was tested, and the inhibition was active: 41%. With `CC1CCN(c2nc3c(c(=O)n(C)c(=O)n3C)n2Cc2cccc(Br)c2)CC1` the inhibition was “inactive”. For `Nc1cc(=O)[nH]c(SCCOc2ccccc2)n1`, the inhibition was inconclusive: 15%. `O=C(Nc1ccnn1C1CCN(Cc2cccc3cccnc23)CC1)C1CC1` was tested, and the inhibition was inconclusive: 22%. In the case of `COc1cc2c(C(=O)N3CCN(c4ccccc4F)CC3)cn(C)c(=O)c2cc1OC`, the inhibition is reported as inconclusive: 17%. `COc1ccc(NC(=O)c2oc3ccccc3c2NC(=O)C(C)C)c(OC)c1` was tested, and the inhibition was “inactive”. For `COc1ccc(Nc2ncnc3c2cnn3-c2ccc(Cl)cc2)cc1OC`, the inhibition was inconclusive: 20%. For `O=C(NCc1ccccc1-n1ccnc1)c1ccc(-n2cnnc2)cc1`, the inhibition was “inactive”. For `O=C(Nc1ccc(F)cc1F)c1cc([N+](=O)[O-])nn1Cc1ccccc1`, the inhibition was inconclusive: 14%. With `Cc1cc2cc(C(=O)NCCNc3cccnc3)ccc2o1` the inhibition was inconclusive: 12%. In the case of `CCC(C)N(Cc1ccc(S(C)(=O)=O)cc1)Cc1ccsc1` (stereo not drawn), the inhibition is reported as inconclusive: 20%. For `COc1ccccc1CN1CCC(CN(CC(C)C)C(=O)c2csc(C(C)=O)c2)CC1`, the inhibition was “inactive”. With `O=C(Nc1ccccc1Br)c1ccc(Cl)cc1` the inhibition was inconclusive: 15%. With `CCSc1nnc2c(n1)OC(c1c(OC)cc(OC)cc1OC)Nc1ccccc1-2` (stereo not drawn) the inhibition was “inactive”. For `COc1ccc(C)cc1NC(=O)c1cc(C(=O)Nc2cc(C)ccc2OC)n(C)n1`, the inhibition was inconclusive: 21%. For `CCOC(=O)N1CCN(C2CCCN(Cc3cccc(-c4ccco4)c3)C2)CC1` (stereo not drawn), the inhibition was inconclusive: 22%. `N=C1S/C(=C\c2ccc(-c3ccc(F)c(Cl)c3)o2)C(=O)N1c1nonc1N` was tested, and the inhibition was inconclusive: 13%. In the case of `COc1cc(Br)c(CN(C)CCc2ccccn2)cc1OC`, the inhibition is reported as inconclusive: 11%. `CC(C)NC[C@H]1O[C@@H](CO)[C@@H](O)[C@H]1N1CCN(c2ccc(F)cc2)CC1` was tested, and the inhibition was inconclusive: 17%. `CC1(C)CC(=O)C2=C(C1)OC(N)=C(C#N)C2c1ccccc1` (stereo not drawn) was tested, and the inhibition was inconclusive: 10%. In the case of `Cc1cccc(/C=C/c2ccccc2)n1`, the inhibition is reported as inconclusive: 23%. With `Cc1nc2c(ccc3nc(NC(=O)c4cc(Cl)cc(Cl)c4)sc32)s1` the inhibition was inconclusive: 11%. `COc1ccccc1C(=O)N/C(=C\c1ccc2c(c1)OCO2)C(=O)NCC(=O)O` was tested, and the inhibition was “inactive”. For `CCSC1=N/C(=C\c2ccc3c(c2)OCO3)C(=O)S1`, the inhibition was active: 55%. `CCC(=O)Nc1ccc(Nc2nc(C)cc(Nc3ccccc3)n2)cc1` was tested, and the inhibition was inconclusive: 24%. In the case of `CN(CCC1CCCCO1)C(=O)CC1(c2cccc(C(F)(F)F)c2)CC(=O)N(C2CC2)C1=O` (stereo not drawn), the inhibition is reported as “inactive”. For `Cc1ccsc1CN(C)C(=O)c1cnn2ccn(C)c12`, the inhibition was “inactive”. For `CCCCNC(=O)C1CCCN(S(C)(=O)=O)C1` (stereo not drawn), the inhibition was “inactive”. `O=C(CN1C(=O)/C(=C\c2ccc(Cl)cc2)Sc2ccccc21)NCc1ccco1` was tested, and the inhibition was inconclusive: 14%. `CCCc1[nH]nc2c1C(c1ccc(OC)c(OC)c1OC)C(C#N)=C(N)O2` (stereo not drawn) was tested, and the inhibition was inconclusive: 11%. `COc1ccc(Nc2cc(C)nc(Nc3ccc(NC(=O)CC(C)(C)C)cc3)n2)cc1` was tested, and the inhibition was inconclusive: 22%. For `N#Cc1nc(COc2ccccc2F)oc1NCc1ccco1`, the inhibition was inconclusive: 15%. For `O=C(CSc1cn(Cc2ccccc2Cl)c2ccccc12)Nc1ccc2c(c1)OCCO2`, the inhibition was inconclusive: 11%. With `CN1C[C@@H](NC(=O)Nc2cccc(F)c2)C[C@H]1c1nc(-c2cccnc2)no1` the inhibition was “inactive”. `COc1ccc(Oc2coc3cc(OC(C)C(=O)OCC(C)C)ccc3c2=O)cc1` (stereo not drawn) was tested, and the inhibition was inconclusive: 14%. `O=C(CC1CCCC1)N1CCC(Oc2cccc(C(=O)N3CCOCC3)c2)CC1` was tested, and the inhibition was inconclusive: 10%. For `CCN(CC)CCCN1C(=O)C(=O)C(=C(O)c2ccccc2)C1c1cccc([N+](=O)[O-])c1` (stereo not drawn), the inhibition was “inactive”. With `CCCn1cnnc1CN(C)Cc1nc(-c2ccco2)oc1C` the inhibition was “inactive”. In the case of `Cc1noc([C@@H]2C[C@H](NC(=O)c3cnccn3)CN2C)n1`, the inhibition is reported as inconclusive: 14%. `Cc1cc(N(C)C)nc(Nc2ccc(NC(=O)c3ccccc3C)cc2)n1` was tested, and the inhibition was active: 31%. In the case of `CCCCOc1ccccc1C1NC(=O)NC(C)=C1C(=O)OCCSC` (stereo not drawn), the inhibition is reported as inconclusive: 15%. With `N#Cc1c(N)nc2c(c1-c1ccccc1Cl)CCCCC2` the inhibition was “inactive”.
